{"sequences": {"note": "Sequences of proteins named here, by UniProt entry; tags and fusion partners are left off. Residues count along the entry.", "UniProt P24388, 25-322 limits assumed": "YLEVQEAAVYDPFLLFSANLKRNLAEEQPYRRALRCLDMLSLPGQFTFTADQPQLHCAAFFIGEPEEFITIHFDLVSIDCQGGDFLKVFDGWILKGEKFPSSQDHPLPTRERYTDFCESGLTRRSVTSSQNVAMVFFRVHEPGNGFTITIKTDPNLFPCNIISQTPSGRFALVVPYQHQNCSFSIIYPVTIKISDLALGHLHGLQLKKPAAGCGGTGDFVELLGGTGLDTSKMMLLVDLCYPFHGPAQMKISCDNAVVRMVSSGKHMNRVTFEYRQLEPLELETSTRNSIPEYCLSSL"}, "source": "patent US20080221021A1", "about": "“Novel Corticotropin-Releasing Factor Receptor 1 (Crfr1) Agonist” (Max-Planck-Gesellschaft Zur Forderung Der, priority 2004, published 2008)", "target": "T1, rCRFBP (Rattus norvegicus, UniProt P24388)", "T1 construct": "His6 (C); made in house; host or cells: HEK 293 cells, stably transfected", "experiment": "IC50, nM | rCRFBP^#", "note": "At least one compound was matched to its structure with a doubt left. Where a SMILES comes first, the peptide text is derived from it. [ ]: non-standard residue; d: D form. pGlu = O=C1CC[C@@H](C(=O)O)N1", "data": [{"smiles": "CC[C@H](C)[C@H](NC(=O)[C@H](CO)NC(=O)[C@@H](NC(=O)[C@@H]1CCCN1C(=O)[C@@H]1CCCN1C(=O)CNC(=O)[C@@H]1CCC(=O)N1)[C@@H](C)CC)C(=O)N[C@@H](CC(=O)O)C(=O)N[C@@H](CC(C)C)C(=O)N[C@@H](CO)C(=O)N[C@@H](CC(C)C)C(=O)N[C@@H](CCC(=O)O)C(=O)N[C@@H](CC(C)C)C(=O)N[C@@H](CC(C)C)C(=O)N[C@@H](CCCNC(=N)N)C(=O)N[C@@H](CCC(=O)O)C(=O)N[C@H](C(=O)N[C@@H](CC(C)C)C(=O)N[C@@H](CCC(=O)O)C(=O)N[C@@H](CCSC)C(=O)N[C@@H](CCC(=O)O)C(=O)N[C@@H](CCCNC(=N)N)C(=O)N[C@@H](C)C(=O)N[C@@H](CCC(=O)O)C(=O)N[C@@H](CCC(N)=O)C(=O)N[C@@H](CC(C)C)C(=O)N[C@@H](C)C(=O)N[C@@H](CCC(N)=O)C(=O)N[C@@H](CCC(N)=O)C(=O)N[C@@H](C)C(=O)N[C@@H](C)C(=O)N[C@@H](CC(N)=O)C(=O)N[C@@H](CC(N)=O)C(=O)N[C@@H](CCCNC(=N)N)C(=O)N[C@@H](CC(C)C)C(=O)N[C@@H](CC(C)C)C(=O)N[C@@H](CC(C)C)C(=O)N[C@@H](CC(=O)O)C(=O)N[C@H](C(=O)N[C@@H](C)C(N)=O)[C@@H](C)O)C(C)C", "note": "[9^*] ([pGlu]GPPISIDLSLELLREVLEMERAEQLAQQAANNRLLLDTA-NH2; C-terminus assumed)", "values": [{"measurement": "IC50", "result": "> 1000", "unit": "nM"}]}]}
